In patent US20130129739A1:
Results are given in words; binding and its absence hold for the method and conditions named. Some binding calls cover weakened binding; strength is not graded here.

By UniProt entry, the sequences of proteins in these tests, tags left out. Where a name states a change or a piece, a line headed by the entry shows the natural chain unless it says otherwise.
UniProt P16471: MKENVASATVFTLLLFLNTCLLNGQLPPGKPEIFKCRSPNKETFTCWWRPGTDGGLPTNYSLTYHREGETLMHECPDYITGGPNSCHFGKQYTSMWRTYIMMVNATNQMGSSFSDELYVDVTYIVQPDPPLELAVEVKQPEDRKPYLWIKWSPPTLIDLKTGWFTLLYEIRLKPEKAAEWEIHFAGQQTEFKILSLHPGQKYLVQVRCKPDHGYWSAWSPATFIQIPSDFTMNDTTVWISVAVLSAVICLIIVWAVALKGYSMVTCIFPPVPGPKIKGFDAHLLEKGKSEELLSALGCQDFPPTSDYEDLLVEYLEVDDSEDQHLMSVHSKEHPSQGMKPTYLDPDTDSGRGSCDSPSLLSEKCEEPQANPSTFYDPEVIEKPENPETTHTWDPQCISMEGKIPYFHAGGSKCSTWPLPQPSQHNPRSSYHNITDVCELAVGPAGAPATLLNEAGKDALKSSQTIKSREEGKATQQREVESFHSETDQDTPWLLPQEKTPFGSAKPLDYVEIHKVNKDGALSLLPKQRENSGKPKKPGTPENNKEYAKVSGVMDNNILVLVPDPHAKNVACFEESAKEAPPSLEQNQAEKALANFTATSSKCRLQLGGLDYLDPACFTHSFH

Experiments:
[1] = biological target: extracellular domain of human PRLR (monomeric, soluble) (human) (UniProt P16471); test: ELISA, Fab in E. coli supernatant on immobilized human PRLR ECD; reference non-maturated 005-C04 Fab
[2] = biological target: extracellular domain of human PRLR (monomeric, soluble) (human) (UniProt P16471); test: ELISA: plate coated with human PRLR extracellular domain, Fab-containing E. coli supernatant, anti-flag-HRP, Amplex Red

binding [1]: binds
binding [2]: binds
B1: 005-C04-L2-1-16-5 (Fab, V domains shown)
VH: EVQLLESGGGLVQPGGSLRLSCAASGFTFSSYWWHWVRQAPGKGLEWVSDMARASSYTNYADSVKGRFTISRDNSKNTLYLQMNSLRAEDTAVYYCARGLDARRMDYWGQGTLVTVTS
VL: QSVLTQPPSASGTPGQRVTISCTGSSSNIGAGYVVHWYQQLPGTATKLLIYRNNVRQSGVPDRFSGSKSGTSASLAISGLRSEDEADYYCAAWDDSLNGWLFGGGTKLTVLG
